In CN114671953A:
Substitutions are numbered along the chain they refer to. These are yes or no findings as the source states them, for the method shown. Some results given as binding are weak or reduced against the parent protein; the word gives no strength. Each block holds one binder with its values, some of them ahead of it.

By UniProt entry, the sequences of proteins in these tests, tags left out. Where a name states a change or a piece, a line headed by the entry shows the natural chain unless it says otherwise. Residues count along the entry.
UniProt Q96NY8: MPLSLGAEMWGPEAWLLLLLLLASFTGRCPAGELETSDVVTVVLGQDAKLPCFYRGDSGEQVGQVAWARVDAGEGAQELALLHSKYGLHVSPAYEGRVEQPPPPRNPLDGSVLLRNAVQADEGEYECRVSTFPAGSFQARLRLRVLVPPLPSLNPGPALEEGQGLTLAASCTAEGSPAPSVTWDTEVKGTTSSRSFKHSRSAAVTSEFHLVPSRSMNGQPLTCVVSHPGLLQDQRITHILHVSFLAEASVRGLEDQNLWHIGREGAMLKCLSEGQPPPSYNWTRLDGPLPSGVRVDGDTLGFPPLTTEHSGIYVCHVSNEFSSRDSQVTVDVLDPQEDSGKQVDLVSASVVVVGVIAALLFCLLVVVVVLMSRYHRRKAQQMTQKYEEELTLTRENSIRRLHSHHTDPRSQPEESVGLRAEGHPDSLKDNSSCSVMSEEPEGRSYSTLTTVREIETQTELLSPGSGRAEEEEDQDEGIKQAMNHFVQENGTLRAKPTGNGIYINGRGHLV
人Nectin-4: residues 32-349 of Q96NY8

Tests used:
[1] = molecular target: 细胞表面表达的Nectin-4(人乳腺癌细胞MCF-7、T-47D) (human) (UniProt Q96NY8); assay: flow cytometry on Nectin-4 expressing MCF-7 cells, 10 ug/mL or 5 nM
人Nectin-4 (human) [2] = molecular target: 人Nectin-4 (human) (UniProt Q96NY8); assay: ELISA, human Nectin-4 coated at 0.5 ug/mL, antibody 2 ug/mL
[3] = molecular target: 食蟹猴Nectin-4 (cynomolgus monkey); assay: ELISA, cynomolgus Nectin-4 coated at 0.5 ug/mL, antibody titrated from 2 ug/mL
[4] = molecular target: 食蟹猴Nectin-4 (cynomolgus monkey); assay: ELISA (Fig. 3 legend)
人Nectin-4 (human) [5] = molecular target: 人Nectin-4 (human) (UniProt Q96NY8); assay: ELISA (Fig. 2)
人Nectin-4 (human) [6] = molecular target: 人Nectin-4 (human) (UniProt Q96NY8); assay: BLI, VHH-Fc on anti-hIgG Fc probe

- binding [1]: binds
- binding (人Nectin-4 (human) [2]): binds
- binding [3]: binds
- binding [4]: binds
- binding (人Nectin-4 (human) [5]): binds
- binding (人Nectin-4 (human) [6]): binds
B1: CMB7-7 (Fc fusion, not shown: a dimerising Fc or GST)
chain: QVQLVESGGGLVQAGGSLRLSCAASGSIFSINAMGWFRQAPGKQRELAAAITSGGSTKYADSVKGRFTISRDNAKNTVYLQMNRLKPEDTGVYYCAAATGEPFEYNYWGQGTQVTVSS

- binding [1]: binds
- binding (人Nectin-4 (human) [2]): binds
- binding [3]: binds
- binding [4]: binds
- binding (人Nectin-4 (human) [5]): binds
- binding (人Nectin-4 (human) [6]): binds
B2: CMB7-22 (Fc fusion, not shown: a dimerising Fc or GST)
chain: B1 chain with A48V, K58N, D61V, R71S, N73K, R84S, G91A, T99R, N106E, Q113L

- binding [1]: binds
- binding (人Nectin-4 (human) [2]): binds
- binding [3]: binds
- binding [4]: binds
- binding (人Nectin-4 (human) [5]): binds
- binding (人Nectin-4 (human) [6]): binds
B3: CMB7-11 (Fc fusion, not shown: a dimerising Fc or GST)
chain: QVQLVESGGGLVQAGGSLRLSCAASGSIFSISAMGWFRQAPGNQREMVAAITKGGSVNYADSVKGRFTITRDNAKNTVYLQMNSLKPEDTAVYYCAAAVGAPFEYDYWGQGTQVTVSS

- binding [1]: binds
- binding (人Nectin-4 (human) [2]): binds
- binding [3]: binds
- binding [4]: binds
- binding (人Nectin-4 (human) [5]): binds
- binding (人Nectin-4 (human) [6]): binds
B4: CMB7-9 (Fc fusion, not shown: a dimerising Fc or GST)
chain: QVQLVESGGGLVQPGGSLRLSCAASGSIFSINAMGWYRQAPGKQRELVASITNGGSTKYDDSVKGRFTISRDNAKNTVYLQMNSLKPEDTAVYYCAAASLVVGGTWEYDTWGQGTLVTVSS

- binding [1]: binds
- binding (人Nectin-4 (human) [2]): binds
- binding [3]: binds
- binding [4]: binds
- binding (人Nectin-4 (human) [5]): binds
- binding (人Nectin-4 (human) [6]): binds
B5: CMB7-12 (Fc fusion, not shown: a dimerising Fc or GST)
chain: QVQLVESGGGLVQPGGSLRLACAASGSIFSINVMGWYRQAPGKQREYVASVSRGGSVKYVDSVKGRFTVSRDNAKNTMYLEMNSLKPEDTAIYFCGAETKMGRGFDSWGQGTQVTVSS

- binding [1]: binds
- binding (人Nectin-4 (human) [2]): binds
- binding [3]: binds
- binding [4]: binds
- binding (人Nectin-4 (human) [5]): binds
- binding (人Nectin-4 (human) [6]): binds
B6: CMB7-20 (Fc fusion, not shown: a dimerising Fc or GST)
chain: QVQLVESGGGLVQPGGSLRLSCAASGSIFSMNVMGWYRQAPGKQRELVATITSGGSTNYADSVKGRFTISRDNANNTVYLQMNSLKPEDTAVYYCTGDQLGPLGTFSPIVYWGQGTQVTVSS

- binding [1]: binds
- binding (人Nectin-4 (human) [2]): binds
- binding [3]: binds
- binding [4]: binds
- binding (人Nectin-4 (human) [5]): binds
- binding (人Nectin-4 (human) [6]): binds
B7: CMB7-6 (Fc fusion, not shown: a dimerising Fc or GST)
chain: B6 chain with M31I, T57V, S84T, G97A, T105L, F106L, I109T, V110I, Q117L

- binding [1]: binds
- binding (人Nectin-4 (human) [2]): binds
- binding [3]: binds
- binding [4]: binds
- binding (人Nectin-4 (human) [5]): binds
- binding (人Nectin-4 (human) [6]): binds
B8: CMB7-23 (Fc fusion, not shown: a dimerising Fc or GST)
chain: QVQLVESGGGLVQPGGSLRLSCAASGSDFTINVMGWYRQAPGKQRELVATVTSGGSLNYADSVKGRFTISRDNAKNTVYLQMNSLKPEDTAVYYCTADQFGPLGHLSPIIYWGQGTQVTVSS

- binding [1]: binds
- binding (人Nectin-4 (human) [2]): binds
- binding [3]: binds
- binding [4]: binds
- binding (人Nectin-4 (human) [5]): binds
- binding (人Nectin-4 (human) [6]): binds
B9: CMB7-18 (Fc fusion, not shown: a dimerising Fc or GST)
chain: QVQLVESGGGLVQAGGSLRLSCAASGSIFSINAMGWHRQGPGDQRELVAAITSGGSTKYVDSVKGRFTISRDNAKNTVYLQMNSLKPEDTGVYYCAAMGGSYEYDYWGQGTQVTVSS

- binding [1]: binds
- binding (人Nectin-4 (human) [2]): binds
- binding [3]: binds
- binding [4]: binds
- binding (人Nectin-4 (human) [5]): binds
- binding (人Nectin-4 (human) [6]): binds
B10: CMB7-10 (Fc fusion, not shown: a dimerising Fc or GST)
chain: QVQLVESGGGLVQAGESLRLSCAASGSIFSINAMAWYRQAPGKQRELVAAITSGGSTKYADSVKGRFTISRDNAKNTVYLQMNSLKPEDTAVYYCAAMDRTTLEYDYWGQGTLVTVSS

- binding [1]: binds
- binding (人Nectin-4 (human) [2]): binds
- binding [3]: binds
- binding [4]: binds
- binding (人Nectin-4 (human) [5]): binds
- binding (人Nectin-4 (human) [6]): binds
B11: CMB7-19 (Fc fusion, not shown: a dimerising Fc or GST)
chain: B10 chain with E16G, R19G, G26E, I31Y, A35G, Y37F, T57I, T90R, A91G

- binding [1]: binds
- binding (人Nectin-4 (human) [2]): binds
- binding [3]: binds
- binding [4]: binds
- binding (人Nectin-4 (human) [5]): binds
- binding (人Nectin-4 (human) [6]): binds
B12: CMB7-8 (Fc fusion, not shown: a dimerising Fc or GST)
chain: QVQLVESGGGLVQAGGSLRLSCAASGNIFSVNAMGWFRQAPGKQRELVAAITSGGSIRYVDSVKGRFTISRDNAKNTVYLQMNSLKPEDTAVYYCAAARGEPYEYDYWGQGTLVTVSS
